These are yes or no findings as the source states them, for the method shown. Some entries that bind do so weakly or less than the wild type.
Biological target: integrin αIIbβ3 on platelets (human (endogenous in platelets)) (UniProt P08514+P05106)
Test: static platelet adhesion assay; washed platelets pre-incubated with antagonist peptides (cRGD 10 μM, RGDS 100 μmol L^-1) before adhesion to coated proMMP-13; only the binder purified

Chains of the proteins cited; added tags and fusions are not shown. Lines headed by an entry give the natural chain unless they say otherwise; changes in a name come on top.
UniProt P08514: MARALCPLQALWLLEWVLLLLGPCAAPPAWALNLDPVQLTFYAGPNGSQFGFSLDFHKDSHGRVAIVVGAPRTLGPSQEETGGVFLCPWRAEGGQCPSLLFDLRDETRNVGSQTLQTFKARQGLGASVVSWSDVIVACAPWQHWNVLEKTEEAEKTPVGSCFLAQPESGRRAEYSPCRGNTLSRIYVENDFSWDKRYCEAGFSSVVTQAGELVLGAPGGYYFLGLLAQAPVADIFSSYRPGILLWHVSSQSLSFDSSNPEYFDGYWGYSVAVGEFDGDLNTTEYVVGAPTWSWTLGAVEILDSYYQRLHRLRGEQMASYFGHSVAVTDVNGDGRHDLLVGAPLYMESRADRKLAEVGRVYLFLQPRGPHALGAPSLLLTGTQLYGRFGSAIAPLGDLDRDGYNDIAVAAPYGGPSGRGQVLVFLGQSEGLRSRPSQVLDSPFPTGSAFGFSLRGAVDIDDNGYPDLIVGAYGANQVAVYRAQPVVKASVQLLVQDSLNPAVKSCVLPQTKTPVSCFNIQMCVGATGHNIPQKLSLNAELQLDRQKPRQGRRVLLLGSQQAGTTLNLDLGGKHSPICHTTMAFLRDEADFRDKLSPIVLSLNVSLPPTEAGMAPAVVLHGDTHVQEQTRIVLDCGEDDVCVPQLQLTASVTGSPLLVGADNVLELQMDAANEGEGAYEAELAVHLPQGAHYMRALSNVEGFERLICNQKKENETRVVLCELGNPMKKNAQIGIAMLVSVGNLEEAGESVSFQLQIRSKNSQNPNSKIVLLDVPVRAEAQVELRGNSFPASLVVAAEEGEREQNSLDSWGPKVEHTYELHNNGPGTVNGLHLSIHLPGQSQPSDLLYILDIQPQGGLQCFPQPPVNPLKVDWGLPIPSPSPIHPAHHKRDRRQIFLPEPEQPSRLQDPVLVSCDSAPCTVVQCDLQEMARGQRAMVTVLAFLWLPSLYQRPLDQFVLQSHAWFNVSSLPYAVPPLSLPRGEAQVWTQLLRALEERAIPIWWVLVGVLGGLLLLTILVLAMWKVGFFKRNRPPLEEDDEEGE
UniProt P05106: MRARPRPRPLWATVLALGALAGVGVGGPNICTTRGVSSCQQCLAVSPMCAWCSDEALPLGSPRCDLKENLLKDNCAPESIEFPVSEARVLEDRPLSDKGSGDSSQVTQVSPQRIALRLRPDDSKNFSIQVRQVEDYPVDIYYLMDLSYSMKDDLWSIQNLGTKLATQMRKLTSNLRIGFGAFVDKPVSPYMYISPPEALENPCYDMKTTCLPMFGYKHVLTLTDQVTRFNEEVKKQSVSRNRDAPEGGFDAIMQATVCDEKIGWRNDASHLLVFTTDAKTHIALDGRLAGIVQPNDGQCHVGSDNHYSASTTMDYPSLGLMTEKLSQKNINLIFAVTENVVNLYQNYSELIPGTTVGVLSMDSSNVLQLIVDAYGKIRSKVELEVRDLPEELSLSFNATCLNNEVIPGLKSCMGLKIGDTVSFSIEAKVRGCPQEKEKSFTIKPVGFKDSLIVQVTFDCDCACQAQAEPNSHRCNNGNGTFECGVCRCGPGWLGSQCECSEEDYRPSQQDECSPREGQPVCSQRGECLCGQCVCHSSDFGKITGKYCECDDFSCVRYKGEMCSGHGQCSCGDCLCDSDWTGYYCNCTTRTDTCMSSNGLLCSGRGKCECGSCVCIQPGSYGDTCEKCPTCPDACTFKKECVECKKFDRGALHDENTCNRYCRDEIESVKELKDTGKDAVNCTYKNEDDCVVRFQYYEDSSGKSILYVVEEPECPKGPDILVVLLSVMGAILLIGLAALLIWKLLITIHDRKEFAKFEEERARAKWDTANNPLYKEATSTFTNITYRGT

binding: binds
Binder: CRGDFPASSC (cyclic) [cyclic RGD (H‐Cys‐Arg‐Gly‐Asp‐Phe‐Pro‐Ala‐Ser‐Ser‐Cys‐OH)]

Reference: paper PMC5974921
